Assay results published in patent US7078400B2, “20-HETE synthase inhibitor” (Taisho Pharmaceutical Co., Ltd., priority 1999, dated 2006).
At least one compound was matched to its structure with a doubt left.

Test system: 20-HETE synthase originated from rat kidney microsome
Assay: Inhibitory effect of 20-HETE synthase originated from rat kidney microsome
Type: biochemical
Details: 1 μM of the subject compound added, 20-HETE production without compound set to 100%
Experimental: Experimental Example [Inhibitory effect of 20-HETE synthase originated from rat kidney microsome]
Regarding the compounds listed in Table 1, their inhibitory activity to production of 20-HETE was examined.
The subject compound for this examination was added to a buffer comprising 50 mM of 3-morpholinopropane sulfonic acid (pH7.4), 5 mM of magnesium chloride and 1 mM of ethylenediaminetetraacetic acid (EDTA) disodium salt.
After that, the rat kidney microsome (microsome fraction prepared from the kidney of a spontaneous hypertension rat (male, 6 weeks of age)) as an enzyme, [5,6,8,9,11,12,14,15] tritium-arachidonic acid (supplied by Amasham) as a substrate, and NADPH (supplied by Sigma) as a coenzyme were added and reacted for 1.5 hours at 37° C.
After the reaction, formic acid was added to stop the reaction, and then acetonitrile (final concentration of 50%) was added and left for 1.5 hours at room temperature.
The activity of 20-HETE synthase was measured by using a high performance liquid chromatograph having a detector for radioactive substances (supplied by Gilson), and equipped with a C18 reversed phase column (Biocyl C18, supplied by Bio-rad).

**Q.** Which “Inhibition rate (1 μM)” value does the source give for `N#Cc1ccc(N/C=N/O)cc1Cl` [Comp. 194] here?
**A.** 67.5
